Values quoted from earlier work as cited in patent publication US20110230433A1, “COMPOSITIONS AND METHODS FOR TREATMENT OF CANCER” (UNIVERSITY OF WASHINGTON, priority 2010, published 2011).
At least one compound was matched to its structure with a doubt left.

System: cells
Conditions: exposure of cells to differential amounts, random mutation capture assay; cited from earlier work

In the case of `CCN(N=O)C(N)=O` [ENU, ethylnitrosourea, reference compound], the “mutagenesis versus amount of compound” value is listed as “linear increase in mutagenesis”.
